Test results published in the supplement of paper PMC5249140, “Delineating Substrate Diversity of Disparate Short-Chain Dehydrogenase Reductase from Debaryomyces hansenii” (PLoS ONE, 2017).
Many values rest on one well or one pass, so single values are uncertain.

These molecules were tested on DHK short-chain dehydrogenase reductase (Debaryomyces hansenii, Q6BTD7) (assay: apparent turnover number kcat for ketone reduction (NADPH consumption, 100 uM substrate) (s-1); higher = faster reduction of the ketone by the enzyme). Conditions: substrate concentration 100 µM; NADPH 100 µM; pH 7.4; 25 °C.
Method: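 Purified N-His6 DHK (unannotated SDR, Debaryomyces hansenii) was screened against a prochiral ketone library: 100 uM substrate, 100 uM NADPH, 1% BSA, 4% DMSO in 100 mM sodium phosphate / 100 mM NaCl pH 7.4 at 25 C, ~27 nM enzyme. Rate was followed by NADPH depletion at 340 nm and reported as apparent kcat (s-1) at a single substrate concentration; no replicates stated.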
`O=C(CSc1nnc(-c2cccnc2)o1)c1ccc(Cl)cc1` was tested, and the “apparent turnover number kcat” value was 2.98. With `Cc1cc(C(=O)n2cc(C(=O)c3ccccc3O)cn2)c(C)o1` the “apparent turnover number kcat” value was 7.07. `O=C1C(Cl)=C(N2CCN(c3ccc([N+](=O)[O-])cc3)CC2)C(=O)c2ccccc21` was tested, and the “apparent turnover number kcat” value was 0.718. With `CC(C)Oc1ccc(C2CC(=O)NC3=C2C(=O)CCC3)cc1` (centres undefined) the “apparent turnover number kcat” value was 3.99. `Cc1ccc(C(=O)COC(=O)CN2C(=O)c3ccccc3C2=O)cc1` was tested, and the “apparent turnover number kcat” value was 5.71. With `CC(=O)N(C1=C(Cl)C(=O)c2ccccc2C1=O)c1cccc(Cl)c1` the “apparent turnover number kcat” value was 5.07. In the case of `Cc1oc2c(c1C(=O)c1ccc(Br)cc1)C(=O)C(=O)c1ccccc1-2`, the “apparent turnover number kcat” value is reported as 3.52. In the case of `C=CCN1C(=O)C(O)=C(C(=O)c2ccc(Cl)cc2)C1c1ccc([N+](=O)[O-])cc1` (centres undefined), the “apparent turnover number kcat” value is reported as 6.51. For `Cc1ccc(O)c(C(=O)c2cc(C#N)c(=O)n(-c3ccccc3C)c2)c1`, the “apparent turnover number kcat” value was -0.0132. With `CCc1c(C#N)c(SCC(=O)c2ccc(C)c(C)c2)nc2c1C(=O)CC(C)(C)C2` the “apparent turnover number kcat” value was 5.04. For `CN1C(=O)C(O)=C(C(=O)c2ccc(Br)cc2)C1c1ccc([N+](=O)[O-])cc1` (centres undefined), the “apparent turnover number kcat” value was 10.9. With `CC1C(=O)C(C)C(c2ccccc2O)NC1c1ccccc1O` (centres undefined) the “apparent turnover number kcat” value was 0.0454. In the case of `CC(=O)c1cccc(S(=O)(=O)N2CCC(C(=O)[O-])CC2)c1`, the “apparent turnover number kcat” value is reported as 7.27. `O=C(Cn1cc(C(F)(F)F)ccc1=O)c1cc2ccccc2o1` was tested, and the “apparent turnover number kcat” value was 3.68. For `COc1ccc(O)c(C(=O)c2cnc3cc4c(cc3c2)OCO4)c1`, the “apparent turnover number kcat” value was 4.04. With `Cc1ccc(O)c(C(=O)c2cc(C#N)c(=O)n(-c3ccccn3)c2)c1` the “apparent turnover number kcat” value was 3.56. With `CC(=O)N1CN2CN(C(C)=O)CC(C(=O)c3ccc([N+](=O)[O-])cc3)(C2)C1` the “apparent turnover number kcat” value was 6.52. With `O=C1NC2=C(C(=O)CCC2)C(c2ccc(OC(F)F)cc2)N1` (centres undefined) the “apparent turnover number kcat” value was 0.0442. For `COc1ccc(OCC(=O)c2ccc(O)c(C)c2O)cc1`, the “apparent turnover number kcat” value was 4.07. For `N#CC(C(=O)COC(=O)c1cc(=O)[nH]c(=O)[nH]1)=C1Nc2ccccc2N1`, the “apparent turnover number kcat” value was 5.94. With `O=C(CSc1nnnn1C1CCCC1)c1ccc2c(c1)CCC2` the “apparent turnover number kcat” value was 3.81. With `CC(=O)Nc1cccc(C(=O)OCC(=O)c2ccc3c(c2)OCO3)c1` the “apparent turnover number kcat” value was 5.82. `Cc1sc2ncnc(SCC(=O)c3ccc(O)cc3O)c2c1C` was tested, and the “apparent turnover number kcat” value was 3.55. In the case of `COc1ccc(C)cc1-n1nnnc1SCC(=O)c1ccc[nH]1`, the “apparent turnover number kcat” value is reported as 3.57. In the case of `O=C(CSc1nnnn1-c1cccc2ccccc12)c1ccc(O)c(O)c1`, the “apparent turnover number kcat” value is reported as 6.4. For `Cc1cccc(C(=O)NNC2=CC(=O)CC(C)(C)C2)c1O`, the “apparent turnover number kcat” value was 6.1. For `Cc1ccc(S(=O)(=O)CC(=O)c2cccc([N+](=O)[O-])c2)cc1`, the “apparent turnover number kcat” value was 4.78. `CC(C)CCN1C(=O)c2ccc(C(=O)c3cccc([N+](=O)[O-])c3)cc2C1=O` was tested, and the “apparent turnover number kcat” value was 5.74. `Cc1ccc(C)c(C(=O)COC(=O)c2nc3nccc(C)n3n2)c1` was tested, and the “apparent turnover number kcat” value was 4.13. In the case of `O=C(CNC(=O)c1ccccc1)OCC(=O)c1ccc([N+](=O)[O-])cc1`, the “apparent turnover number kcat” value is reported as 4.39. In the case of `CC(=O)N1CN2CN(C(C)=O)CC(C(=O)c3ccccc3)(C2)C1`, the “apparent turnover number kcat” value is reported as 4.75. In the case of `CC(NCc1ccc2c(c1)OCO2)=C1C(=O)c2ccccc2C1=O`, the “apparent turnover number kcat” value is reported as 4.88. In the case of `O=C(COc1ccc([N+](=O)[O-])cc1)c1ccc(O)cc1O`, the “apparent turnover number kcat” value is reported as 4.37. `O=C(CCN1C(=O)c2ccccc2C1=O)C[N+](=O)[O-]` was tested, and the “apparent turnover number kcat” value was 4.88. `O=C(CN1C(=O)c2cccc([N+](=O)[O-])c2C1=O)OCC(=O)c1ccc(Cl)s1` was tested, and the “apparent turnover number kcat” value was 4.74. For `CC(=O)c1ccc(NCN2C(=O)c3ccc([N+](=O)[O-])cc3C2=O)cc1`, the “apparent turnover number kcat” value was 3.34. `Cc1cc(-n2c(C)cc(C(=O)Cn3c(=O)cnc4ccccc43)c2C)no1` was tested, and the “apparent turnover number kcat” value was 2.48. `N#Cc1cc(C(=O)c2ccccc2O)coc1=O` was tested, and the “apparent turnover number kcat” value was 7.97. With `O=C1CCC(C(=O)OCC(=O)c2ccc3c(c2)NC(=O)CO3)=NN1` the “apparent turnover number kcat” value was 3.53. In the case of `CC1(C)CC(=O)c2c(oc3ccc(NS(=O)(=O)c4ccc(Cl)cc4)cc23)C1`, the “apparent turnover number kcat” value is reported as 0.00571. In the case of `CC(=O)c1ccc(NC2OC(CO)C(O)C(O)C2O)cc1` (centres undefined), the “apparent turnover number kcat” value is reported as 4.94. With `COc1ccc(O)c(C(=O)c2cnn(C(=O)c3ccc(O)cc3)c2)c1` the “apparent turnover number kcat” value was 5.93. For `Cc1ccc2c(c1)C(=O)C(=O)N2CCOc1ccc2ccccc2c1`, the “apparent turnover number kcat” value was 4.38. For `COC(=O)c1cccc(NS(=O)(=O)c2cccc(C(C)=O)c2)c1`, the “apparent turnover number kcat” value was 4.29. For `CN1C(=O)C(O)=C(C(=O)c2ccc(Br)cc2)C1c1ccccc1[N+](=O)[O-]` (centres undefined), the “apparent turnover number kcat” value was 5.57. For `O=C(CSc1nnc(-c2cccnc2)o1)c1ccc(Br)cc1`, the “apparent turnover number kcat” value was 4.42. In the case of `O=C(CN1C(=O)C2CCCCC2C1=O)OCC(=O)c1c[nH]c2ccccc12` (centres undefined), the “apparent turnover number kcat” value is reported as 3.24. `O=C(CN1C(=O)c2ccccc2C1=O)c1ccc(O)cc1O` was tested, and the “apparent turnover number kcat” value was 3.77. `Cc1[nH]c2ccccc2c1C(=O)COC(=O)CN1CCCCCC1=O` was tested, and the “apparent turnover number kcat” value was 7.87. In the case of `Cc1cccc(-c2nnc(SCC(=O)c3ccc(O)cc3O)n2C)c1`, the “apparent turnover number kcat” value is reported as 5.94. `COc1ccc(O)c(C(=O)c2cc(C#N)c(=O)n(-c3ccccc3F)c2)c1` was tested, and the “apparent turnover number kcat” value was 2.35. For `O=C1C(=O)N(CN2CCN(c3cccc(Cl)c3)CC2)c2ccccc21`, the “apparent turnover number kcat” value was 6.23. `Cc1cccc(C(=O)OCC(=O)C(C#N)=C2Nc3ccccc3N2)c1O` was tested, and the “apparent turnover number kcat” value was 4.53. With `COc1ccc(CC(=O)c2c(O)cc(O)cc2O)cc1OC` the “apparent turnover number kcat” value was 8.48. In the case of `O=C(COC(=O)c1ccco1)c1ccc2ccccc2c1`, the “apparent turnover number kcat” value is reported as 5.08. With `Cc1sc2ncnc(SCC(=O)C(C#N)=C3Nc4ccccc4N3)c2c1C` the “apparent turnover number kcat” value was 3.73. In the case of `Cc1ccc(OCC(=O)c2ccc3c(c2)CCCC3)c([N+](=O)[O-])n1`, the “apparent turnover number kcat” value is reported as 5.92. `COc1cccc(N(CC(=O)Nc2cccc(C(C)=O)c2)S(C)(=O)=O)c1` was tested, and the “apparent turnover number kcat” value was 6.76. `COc1cc(C(C)=O)ccc1Oc1ncnc(N)c1[N+](=O)[O-]` was tested, and the “apparent turnover number kcat” value was 5.71. With `O=C1c2ccccc2C(=O)c2c1ccc1c(=O)n(Cc3ccccc3)[nH]c21` the “apparent turnover number kcat” value was 4.31. `O=C(COC(=O)c1cc(O)nc2ccccc12)c1ccccc1` was tested, and the “apparent turnover number kcat” value was 3.62. For `O=C(CSc1nc(-c2ccccc2)cs1)c1ccc([N+](=O)[O-])cc1`, the “apparent turnover number kcat” value was 5.04. With `Cc1ccc(C(=O)c2coc3c2C(=O)C(=O)C(Br)=C3)cc1` the “apparent turnover number kcat” value was 3.5. For `O=C(CSc1nnnn1Cc1cccs1)c1ccc2c(c1)CCC2`, the “apparent turnover number kcat” value was 4.54. In the case of `O=C1c2ccccc2C(=O)c2c(NC(=O)c3cccc4c3C(=O)c3ccccc3-4)cccc21`, the “apparent turnover number kcat” value is reported as 2.96. In the case of `O=C([O-])CN1C(=O)c2ccc(C(=O)c3cccc([N+](=O)[O-])c3)cc2C1=O`, the “apparent turnover number kcat” value is reported as 3.5. In the case of `CC1=C(C(=O)c2ccccc2)C(c2ccc(Cl)c([N+](=O)[O-])c2)NC(=O)N1` (centres undefined), the “apparent turnover number kcat” value is reported as 4.99. For `Cc1ccc2c(c1)CCCN2C(=O)CN1C(=O)C(=O)c2ccccc21`, the “apparent turnover number kcat” value was 4.88. `CC(=O)c1cccc(NC(=O)c2ccc(-c3cc(Cl)ccc3Cl)o2)c1` was tested, and the “apparent turnover number kcat” value was 2.94. For `O=C1c2cc(S(=O)(=O)Nc3ccc(F)cc3)ccc2-c2ccc(S(=O)(=O)Nc3ccc(F)cc3)cc21`, the “apparent turnover number kcat” value was 4.16. With `O=C(Cn1ccn(-c2ccc3c(c2)OCO3)c(=O)c1=O)c1ccc(F)cc1` the “apparent turnover number kcat” value was 3.92. With `O=C1OC(c2cccc([N+](=O)[O-])c2)C(C(=O)c2ccccc2)=C1O` (centres undefined) the “apparent turnover number kcat” value was 0.462. In the case of `COc1ccccc1N1C(=O)c2ccc(C(=O)OCC(=O)c3ccc4ccccc4c3)cc2C1=O`, the “apparent turnover number kcat” value is reported as 4.34. `O=C(CNC(=O)C1Cc2ccccc2C(=O)O1)c1cccs1` (centres undefined) was tested, and the “apparent turnover number kcat” value was 5.57. In the case of `O=C(CN1C(=O)c2ccc([N+](=O)[O-])cc2C1=O)OCC(=O)c1ccc(Br)cc1`, the “apparent turnover number kcat” value is reported as 3.84. In the case of `CCc1c(C#N)c(SCC(=O)c2ccc3c(c2)OCO3)nc2c1C(=O)CC(C)(C)C2`, the “apparent turnover number kcat” value is reported as 4.27. `CC(=O)c1cccc(S(=O)(=O)Nc2cccnc2)c1` was tested, and the “apparent turnover number kcat” value was 4.62. For `Cc1c(O)ccc(C(=O)CN2C(=O)c3ccccc3C2=O)c1O`, the “apparent turnover number kcat” value was 5.82. For `O=C(CN1CCN(c2cccc(Cl)c2)CC1)c1ccc(O)cc1O`, the “apparent turnover number kcat” value was 8.14.
